The text below walks through data of PMC4793076.

For data set [1], the target named is T1, NFATc1 (Homo sapiens) (UniProt O95644).
T1 sequence (looked up, limits assumed): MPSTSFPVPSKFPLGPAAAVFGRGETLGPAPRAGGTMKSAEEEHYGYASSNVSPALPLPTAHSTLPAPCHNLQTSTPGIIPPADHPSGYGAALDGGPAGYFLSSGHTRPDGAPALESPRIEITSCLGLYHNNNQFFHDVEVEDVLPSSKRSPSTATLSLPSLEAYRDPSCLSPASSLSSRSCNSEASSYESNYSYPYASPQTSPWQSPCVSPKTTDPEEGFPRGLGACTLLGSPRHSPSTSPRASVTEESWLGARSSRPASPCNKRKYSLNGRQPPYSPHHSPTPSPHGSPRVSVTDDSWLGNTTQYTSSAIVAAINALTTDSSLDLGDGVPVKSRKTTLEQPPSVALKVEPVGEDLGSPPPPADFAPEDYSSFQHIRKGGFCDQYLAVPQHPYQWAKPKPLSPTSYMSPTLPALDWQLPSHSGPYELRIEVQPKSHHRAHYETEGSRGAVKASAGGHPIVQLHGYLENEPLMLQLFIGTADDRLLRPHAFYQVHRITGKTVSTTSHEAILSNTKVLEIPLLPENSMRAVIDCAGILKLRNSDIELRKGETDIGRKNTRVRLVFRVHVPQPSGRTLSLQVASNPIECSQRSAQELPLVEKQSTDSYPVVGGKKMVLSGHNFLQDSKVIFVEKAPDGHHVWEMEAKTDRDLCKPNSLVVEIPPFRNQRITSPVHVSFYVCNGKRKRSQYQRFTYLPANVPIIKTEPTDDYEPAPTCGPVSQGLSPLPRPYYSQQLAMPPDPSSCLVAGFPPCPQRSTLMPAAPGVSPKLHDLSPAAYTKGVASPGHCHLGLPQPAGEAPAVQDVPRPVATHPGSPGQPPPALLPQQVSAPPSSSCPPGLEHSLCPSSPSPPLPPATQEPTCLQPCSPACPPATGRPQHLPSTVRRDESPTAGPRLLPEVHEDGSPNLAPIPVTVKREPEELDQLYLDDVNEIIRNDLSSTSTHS
Briefly: promoter enzyme immunoassay (ELISA). The conditions noted are these: poly(dI-dC), anti-NFATc1 detection; ELISA: 5 pmol probe/well, 20 ug nuclear extract, 4 C 2 h, washes in HKMG (10 mM HEPES pH 7.9, 100 mM KCl, 5 mM MgCl2, 10% glycerol, 1 mM DTT, 0.5% NP-40); protein in an extract; label: 5'-biotin on sense strand. (In general: An ELISA detects its analyte on a solid surface through an enzyme-linked reagent.)

In data set [2] the target is T1, NFATc1 (Homo sapiens). Briefly: EMSA (supershift). The conditions noted are these: poly(dI-dC); EMSA: 10 mM Tris pH 7.4, 50 mM KCl, 1 mM DTT, 0.05 mg/ml poly(dI-dC), 5 mM MgCl2, 2.5% glycerol, 0.05% NP40, 20 min RT, 20 fmol probe, 6 ug nuclear protein; protein in an extract; label: 5'-biotin on sense strand.

For at least one entry, the source does not settle the construct or the ends of the probe. Where cells or extracts were used, other partners may take part. For part of these data: Negatives hold for the conditions tested. Tags and fusion partners may be left off the protein sequences shown.

For “GTGGTTGGCTAGCCATTGAC (double strand) [NFAT-mut probe]”, in data set [1], the binding result is “no binding”.

On to “GTGGTTGTGGAAACATTGAC (double strand) [NFAT wt probe (STAB2 promoter -188 to -183)]”, for which the binding result in data set [2] and in data set [1] was “binds” in each case.
